The campaign covered roughly 340,000 compounds. About 4,500 (1.3%) were called active. This list was built around the results that the source calls inconclusive (neither active nor inactive); the mix of calls is not that of the screen. The call rests on the fitted dose curve; in most records, active means well fitted inhibition curve with a large enough effect; inconclusive means small, poorly fitted or top-dose-only effect, or another doubt; inactive means no such curve, though single readings can be large or run the other way. Where the call is inconclusive, the potency comes from a doubtful curve fit.
The molecules below were run against DNA polymerase beta (Homo sapiens) (UniProt P06746) (assay: qHTS Assay for Inhibitors of DNA Polymerase Beta). Settings: Pol beta primer extension/strand displacement, fluorescence kinetic; series mostly up to 114 µM.
Outline: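 Curves were derived by four-parameter Hill fits of normalized qHTS data. The kinetic fluorescent primer-extension read was taken at 0 and 10 min after 50 nM substrate, following a 15 min room-temperature preincubation of 10 nM enzyme with compounds.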
Potency means the concentration at half of the fitted maximal effect.

Structure (SMILES)	Potency
CCOC(=O)C1(C)C=C(Nc2cccc(C)c2)C(=O)N1c1ccccc1 (centres undefined)	inactive
COc1ccc(C(=O)Nc2ccc3c(c2)OCCO3)cc1[N+](=O)[O-]	inconclusive: 89.1 µM [inhibitor, single point]
Cc1ccc(C(=O)N(c2ccccc2)C2CC(C)N(C(=O)c3ccco3)c3ccccc32)cc1 (centres undefined)	inconclusive: 1.41 µM [inhibitor, full curve]
O=C(Cc1ccccc1)N1CCC(c2ccccc2)C1 (centres undefined)	inconclusive: 0.708 µM [inhibitor, full curve, poor fit]
COc1cc(/C=N/NC(=O)c2ccc(-n3cccc3)cc2)ccc1O	active: 12.6 µM
COc1ccc(CCNC(=O)CSc2nc3ccccc3nc2Cc2ccc(C)cc2)cc1OC	inconclusive: 11.2 µM [inhibitor, partial curve]
Cc1n[nH]c(=O)n1-c1ccc(OC(F)(F)F)cc1	inconclusive: 89.1 µM [inhibitor, single point]
OC(C[n+]1ccccc1)c1ccccc1 (centres undefined)	inactive
O=C(N/C(=C\c1ccco1)C(=O)N1CCCC1)c1ccccc1	inactive
O=C(CC(NC(=O)c1ccccc1Cl)c1ccccc1)Nc1ccc2c(c1)OCO2 (centres undefined)	inconclusive: 89.1 µM [inhibitor, single point]
Cc1cc(=S)c2cccc(C)c2[nH]1	inconclusive: 1.58 µM [inhibitor, partial curve, poor fit]
COc1cccc(-n2cnc3sc(C)c(C)c3c2=O)c1	inconclusive: 14.1 µM [inhibitor, partial curve]
N#CCCn1c(SCC(=O)N2CCN(S(=O)(=O)c3ccccc3)CC2)nc2ccccc21	inconclusive: 89.1 µM [inhibitor, single point]
CCCNC(=O)N[C@@H](Cc1ccccc1)C(=O)OC	inconclusive: 0.251 µM [inhibitor, full curve]
CC(C)CCn1c(-c2nonc2N)nc2ccccc21	inconclusive: 0.282 µM [inhibitor, full curve, poor fit]
Cc1ccc(C(C)C)c(OCCSc2nc(-c3cccs3)nc3cc(=O)[nH]n23)c1	inconclusive: 63.1 µM [inhibitor, partial curve, poor fit]
COc1ccc(OC)c(NC(=O)Cn2cc(C(=O)c3cccs3)c3ccccc32)c1	inconclusive: 12.6 µM [inhibitor, partial curve]
Cc1ccc(-n2c(=S)[nH]c3sc4c(c3c2=O)CCC4)cc1	inactive
O=C(Cn1c(=O)oc2cc(S(=O)(=O)NCc3ccccc3)ccc21)NCc1ccc(F)cc1	active: 56.2 µM

An excerpt of these results, with each value named:
O=C(Cc1ccccc1)N1CCC(c2ccccc2)C1 (centres undefined)
  Potency: inconclusive: 0.708 µM [inhibitor, full curve, poor fit]
COc1cc(/C=N/NC(=O)c2ccc(-n3cccc3)cc2)ccc1O
  Potency: active: 12.6 µM

From PubChem BioAssay AID485314 (National Center for Advancing Translational Sciences (NCATS), 2010)
